Test results as given in patent US20210277112A1 (BIOND BIOLOGICS, published 2021).
These are yes or no findings as the source states them, for the method shown. Some entries that bind do so weakly or less than the wild type.

The chains behind the UniProt entries cited, without tags or fusion partners. Where a name states a change or a piece, a line headed by the entry shows the natural chain unless it says otherwise.
UniProt Q8NHL6: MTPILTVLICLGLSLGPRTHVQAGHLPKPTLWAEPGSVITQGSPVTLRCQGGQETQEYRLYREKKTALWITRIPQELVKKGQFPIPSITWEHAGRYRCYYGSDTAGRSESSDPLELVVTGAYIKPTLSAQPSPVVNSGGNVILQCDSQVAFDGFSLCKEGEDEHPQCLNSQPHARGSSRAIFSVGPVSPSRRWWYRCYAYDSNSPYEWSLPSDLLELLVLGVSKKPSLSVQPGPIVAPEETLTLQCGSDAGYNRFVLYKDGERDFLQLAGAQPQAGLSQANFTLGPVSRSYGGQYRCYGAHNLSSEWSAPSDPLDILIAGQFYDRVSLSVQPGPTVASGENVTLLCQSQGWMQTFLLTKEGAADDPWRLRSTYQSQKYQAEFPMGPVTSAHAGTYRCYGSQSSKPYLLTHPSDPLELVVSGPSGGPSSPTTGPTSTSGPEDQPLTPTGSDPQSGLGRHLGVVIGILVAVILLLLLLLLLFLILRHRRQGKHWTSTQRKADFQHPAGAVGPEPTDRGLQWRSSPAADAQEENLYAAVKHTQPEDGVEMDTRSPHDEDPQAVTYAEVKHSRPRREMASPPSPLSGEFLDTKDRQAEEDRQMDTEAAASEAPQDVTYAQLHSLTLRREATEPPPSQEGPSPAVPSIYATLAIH

Columns and labels:
[1] = molecular target: T1, ILT2/CD3z chimera on BW5417.3 cells (human; mouse, UniProt P24161 31-164, limits assumed); assay: flow cytometry on BW cells transfected with human ILT2, PE
T1 construct: domain: trans-membrane and cytoplasmic residues; Expressed on the surface of the mouse BW T cell line; also called BW-ILT2; BW/ILT2z

[2] = molecular target: T1, ILT2/CD3z chimera on BW5417.3 cells; assay: flow cytometry on BW cells transfected with ILT2
[3] = molecular target: T1, ILT2/CD3z chimera on BW5417.3 cells; assay: flow cytometry titration on BW cells transfected with human ILT2, y axis FAB
[4] = molecular target: recombinant human ILT2-Fc conjugated with biotin (human) (UniProt Q8NHL6); assay: flow cytometry blocking assay: ILT2-biotin binding to cells expressing HLA-G
[5] = molecular target: T1, ILT2/CD3z chimera on BW5417.3 cells; assay: flow cytometry on BW cells transfected with human ILT2

Row | binding [1] | binding [2] | binding [3] | binding [4] | binding [5] | Binder
1 | binds | binds | – | – | – | 15G8 (original hybridoma-derived murine anti-ILT2 antibody) (antibody, V domains shown, also called 15G8 antibody) VH: DVQLQGSGPGLVKPSQSLSLTCSVTGYSITSGYYWNWIRQFPGNKLEWMGYISYDGSNNYNPSLKNRISITRDTSKNQFFLKLNSVTSEDTATYYCAHGYSYYYAMDCWGQGTSVTVSS VL: DIQMTQTTSSLSASLGDRVTISCRTSQDISNYLNWYQQKPDGTVKLLISYTSRLHSGVPSRFSGSGSGTDYSLTISNLEQEDIATYFCQQGNTLPTFGSGTKLEIK
2 | – | – | binds | binds | binds | chimeric 15G8 (antibody, V domains shown, Constant regions not described; also called chimeric murine 15G8) VH: DVQLQGSGPGLVKPSQSLSLTCSVTGYSITSGYYWNWIRQFPGNKLEWMGYISYDGSNNYNPSLKNRISITRDTSKNQFFLKLNSVTSEDTATYYCAHGYSYYYAMDCWGQGTSVTVSS VL: DIQMTQTTSSLSASLGDRVTISCRTSQDISNYLNWYQQKPDGTVKLLISYTSRLHSGVPSRFSGSGSGTDYSLTISNLEQEDIATYFCQQGNTLPTFGSGTKLEIK
3 | – | – | binds | – | binds | humanized 15G8 (alanine variant) (antibody, V domains shown, also called 15G8 humanized antibody; humanized antibody 15G8) VH: DVQLQGSGPGLVKPSETLSLTCSVTGYSITSGYYWNWIRQFPGKKLEWMGYISYDGSNNYNPSLKNRITISRDTSKNQFSLKLNSVTAADTATYYCAHGYSYYYAMDAWGQGTSVTVSS VL: DIQMTQSPSSLSASVGDRVTITCRTSQDISNYLNWYQQKPGKAVKLLISYTSRLHSGVPSRFSGSGSGTDYTLTISSLQPEDFATYYCQQGNTLPTFGQGTKLEIK
